From patent publication US20210324374

What was measured:
[1] = test system: VEGF (vascular endothelial growth factor); experiment: binding assay; details: N2A2, protein details: Dylight 650 NHS labelled, R&D Systems, single-stranded DNA, variant of K SL2-B positive control
Insulin [2] = experiment: binding assay; details: dT replaced by C8-alkyne-dU clicked with phenylalanine azide; N2A2; specific family, signal similar in buffer and 1% serum; purified recombinant protein; protein details: Alexa Fluor 647 labelled, Nanocs; single-stranded DNA
Insulin [3] = experiment: flow cytometry; details: 1% human serum; no meaningful Kd obtainable; purified recombinant protein; protein details: Alexa Fluor 647 labelled, Nanocs; label: 5' biotin (listed as IGA3 bt); single-stranded DNA

Sequence	binding result (Insulin [2])	also measured
AGCAGCACAGAGGTCAGATGAATTGGGCCCGTCCGTATGGTGGGTCCTATGCGTGCTACCGTGAA [K SL2-B positive control, Tyr-modified]	–	binding result ([1]; all dT replaced by C8-alkyne-dU clicked with tyrosine azide, Tyr modification enhances affinity and intensity vs natural DNA, purified recombinant …): binds
AGCAGCACAGAGGTCAGATGAATTGGGCCCGTCCGTATGGTGGGTCCTATGCGTGCTACCGTGAA [K SL2-B positive control, Trp-modified]	–	binding result ([1]; all dT replaced by C8-alkyne-dU clicked with tryptophan azide, Trp modification, barely above background, purified recombinant protein): binds more weakly
GGGCCCGTAGAATTGGAAAATATTACCTTCCGGAAGGCAA [insulin family consensus (SEQ 21)]	binds	–
ATGAAGCCGCCCGAACGTGCCCATGACCCCTGCCTATCGC [insulin family consensus (SEQ 19)]	binds	–
GGTGGTGGGGGGGGTTGGTAGGGTGTCTTC [IGA3]	–	binding result (Insulin [3]): no binding
ACCGACCGGTTAACACAACGAAATACGCGGTATCCATCAT [insulin family consensus (SEQ 20)]	binds	–
ACCGTCGAGAACTCCTCCGGCTCTAACTCCGATTATAGCC [insulin family consensus (SEQ 22)]	binds	–

For some of these results: A negative result means that nothing was seen under these conditions. For some of these results: Construct, isoform or probe ends are uncertain for at least one entry. For some of these results: Weaker means in comparison with the reference protein, sequence or condition of that experiment.
